PMC7400437, “Synthesis and Evaluation of the Antibacterial Activities of 13-Substituted Berberine Derivatives” (Antibiotics, 2020)

Tests used:
[1] = tested on: BEAS (human airway epithelial cells); test: Cytotoxic assay on human cells (resazurin); type: cell-based; settings: IC50 on BEAS divided by MIC on S. aureus
Method: (§1) The toxicity of berberine and berberine’s derivatives on human cells was evaluated using resazurin assay as previously described. Human cells used were BEAS (ATCC CRL-9609), Caco2 (ATCC HTB-37) and HepG2 (ATCC HB-8065) corresponding respectively to human airway epithelial cells, intestinal epithelial cells and liver cells. Cells were cultured in Dulbecco’s modified essential medium (DMEM) supplemented with 10% fetal bovine serum (FBS), 1% L-glutamine and 1% antibiotics (Thermo Fisher Scientific, Illkirch-Graffenstaden, France). Cells were routinely grown on 25 cm^2 flasks and maintained in a 5% CO2 incubator at 37 °C. For toxicity assay, cells were detached using trypsin–EDTA solution (Thermo Fisher Scientific), counted using Mallasez counting chamber and seeded into 96-well cell culture plates (Greiner bio-One, Dominique Dutscher, Brumath, France) at approximately 10,000 cells per well. The cells were left to grow for 48–72 h at 37 °C in a 5% CO2 incubator until they reached confluence. Media from wells was then aspirated and cells were treated with 100 µL of culture media containing increasing concentrations of berberine or berberine’s derivatives obtained by serial dilution (from 0 to 50 µM, 1:2 dilution), DMSO (0.5% DMSO final concentration) was used as negative control. After 48 h incubation at 37 °C in a 5% CO2 incubator, cell viability was evaluated using resazurin based in vitro toxicity assay kit (Sigma-Aldrich) following manufacturer’s instructions. Briefly, cell wells were emptied, and cells were treated with 100 µL of resazurin diluted 1:10 in sterile PBS containing calcium and magnesium (PBS^++, pH 7.4). After 4 h incubation at 37 °C, fluorescence intensity (excitation wavelength of 530 nm/emission wavelength of 590 nm) was measured using Synergy Mx microplate reader (Biotek). The fluorescence values were normalized by the controls (DMSO treated cells) and expressed as percent viability. The IC50 values of berberine and berberine’s derivatives on cell viability (i.e., the concentration of derivative causing a reduction of 50% of the cell viability) were calculated using GraphPad® Prism 7 software (San Diego, CA, USA). t-Test and two ways ANOVA analyses were used to address the significant differences between mean values with significance set at p < 0.05.

[2] = tested on: HepG2 (human liver cells); test: Cytotoxic assay on human cells (resazurin); type: cell-based; settings: IC50 on HEPG2 divided by MIC on S. aureus
Method: as §1

| Compound | therapeutic index BEAS [1] | therapeutic index HEPG2 [2] |
| --- | --- | --- |
| COc1ccc(C(=O)/C=C/c2ccc(Cc3c4[n+](cc5c(OC)c(OC)ccc35)CCc3cc5c(cc3-4)OCO5)cc2)c(O)c1 [Compound 25, (2E)-3-{4-[(Berberin-13-yl)methyl]phenyl}-1-(2-hydroxy-4-methoxyphenyl)prop-2-en-1-one] | 2.83 | 39.39 |
| COc1cc(C(=O)Cc2c3[n+](cc4c(OC)c(OC)ccc24)CCc2cc4c(cc2-3)OCO4)cc(OC)c1OC(=O)c1ccccc1 [Compound 16, 4-[2-(Berberin-13-yl)acetyl]-2,6-dimethoxyphenyl Benzoate] | 13.79 | 72.14 |
| COc1ccc2c(Cc3ccc(/C=C/C(=O)NCCc4ccc(S(N)(=O)=O)cc4)cc3)c3[n+](cc2c1OC)CCc1cc2c(cc1-3)OCO2 [Compound 23, (2E)-3-{4-[(Berberin-13-yl)methyl]phenyl}-N-[2-(4-sulfamoylphenyl)ethyl]prop-2-enamide] | 12.66 | 206.00 |
| COc1ccc2c(Cc3ccc(CI)cc3)c3[n+](cc2c1OC)CCc1cc2c(cc1-3)OCO2 [Compound 8, 13-(4-Iodomethylbenzyl)Berberine] | 3.74 | 260.30 |
| COc1ccc2c(=O)cc(-c3ccc(Cc4c5[n+](cc6c(OC)c(OC)ccc46)CCc4cc6c(cc4-5)OCO6)cc3)oc2c1 [Compound 26, 2-{4-[(Berberin-13-yl)methyl]phenyl}-7-methoxy-4H-chromen-4-one] | 41.52 | 180.70 |
| COc1ccc2c(CC(=O)c3ccc(OC(=O)c4ccccc4)cc3OC(=O)c3ccccc3)c3[n+](cc2c1OC)CCc1cc2c(cc1-3)OCO2 [Compound 17, 4-[2-(Berberin-13-yl)acetyl]-3-(benzoyloxy)phenyl Benzoate] | 6.78 | 342.00 |
